Here are results for 74 compounds from the supplement of paper PMC10663445.

SMILES strings stand for the structures. Where a name gives a salt, the structure may show the parent alone. Some of the results follow. Single values are uncertain, as repeats are few or missing.

The test system of this test is hsa-miR-132-3p. Description: miR-132-3p level in NGN2-iNs after compound treatment (TMM-normalised, ComBat batch-corrected) (batch-corrected normalised expression (arbitrary units)); higher = higher miR-132-3p expression. As to conditions: 10 µM; 24 h; human iPSC-derived NGN2 neurons (BR43).
With `C[C@@H]1C[C@H]2[C@@H]3CCC4=CC(=O)C=C[C@]4(C)[C@@]3(F)[C@@H](O)C[C@]2(C)[C@@]1(O)C(=O)CO` [Dexamethasone (DHAP)], the “miR-132-3p level in NGN2-iNs” value was 1.14.
Next, `CC1(C)O[C@@H]2C[C@H]3[C@@H]4CCC5=CC(=O)C=C[C@]5(C)[C@@]4(F)[C@@H](O)C[C@]3(C)[C@]2(C(=O)CO)O1` [Triamcinolone Acetonide]: 0.678.
Next, `O=C(O)CCCc1ccccc1` [Sodium Phenylbutyrate]: -0.348; `COc1ccccc1S(=O)(=O)Nc1ccc2c(c1)CN(C)C(=O)N2`: -0.765; `FC(F)c1nc2ccccc2n1-c1nc(N2CCOCC2)nc(N2CCOCC2)n1`: 0.236.
The value for `Cc1nnc(NS(=O)(=O)c2ccc(N)cc2)s1` [Sulfamethizole] was -0.715; that for `CNC(=O)[C@H](Cc1c[nH]c2ccccc12)NC(=O)[C@@H](CC(=O)NO)CC(C)C` [Ilomastat] was -0.944.
For the compound `C[C@H]1C[C@H]2[C@@H]3CCC4=CC(=O)C=C[C@]4(C)[C@@]3(F)[C@@H](O)C[C@]2(C)[C@@]1(O)C(=O)CO` [Betamethasone], the “miR-132-3p level in NGN2-iNs” value is 0.197.
The value for `Oc1ccc(OCc2ccccc2)cc1` [Monobenzone] was -0.0882.
The value for `Cc1cc(Nc2ncnc3ccc(-c4ccc(CNCCS(C)(=O)=O)o4)cc23)ccc1Oc1ccn2ncnc2c1` [HER2-Inhibitor-1] was 0.809.
Turning to `Cc1ccc(Cl)c(Nc2ccccc2C(=O)O)c1Cl` [Meclofenamate Sodium], the “miR-132-3p level in NGN2-iNs” value is -1.31.
Turning to `O=C(NCCO[N+](=O)[O-])c1cccnc1` [Nicorandil], the “miR-132-3p level in NGN2-iNs” value was found to be 0.965.
The value for `O=C1Nc2ccc(I)cc2C1=Cc1cc(Br)c(O)c(Br)c1` was -0.478; that for `CCN1CCN(C(=O)N[C@@H](C(=O)N[C@@H]2C(=O)N3C(C(=O)O)=C(CSc4nnnn4C)CS[C@H]23)c2ccc(O)cc2)C(=O)C1=O` [Cefoperazone] was -0.215; that for `CCOc1nc2cccc(C(=O)O)c2n1Cc1ccc(-c2ccccc2-c2noc(=O)[nH]2)cc1` [Azilsartan] was 0.695.
Next, `COCCOC(=O)C1=C(C)NC(C)=C(C(=O)OC/C=C/c2ccccc2)C1c1cccc([N+](=O)[O-])c1` (centres undefined) [Cilnidipine]: -1.39.
Next, `Cc1cc([C@@H](C)Nc2ccccc2C(=O)O)c2nc(N3CCOCC3)cc(=O)n2c1`: 0.376.
Regarding `O=c1c(-c2ccc(O)cc2)coc2c([C@@H]3O[C@H](CO)[C@@H](O)[C@H](O)[C@H]3O)c(O)ccc12` [Puerarin], the “miR-132-3p level in NGN2-iNs” value was -0.584.
Next, `CNC(=O)c1cc(COc2nnc(Nc3ccc(Cl)cc3)c3ccoc23)ccn1` [Telatinib]: -0.0823.
For the compound `CCCc1nc(C)c2c(=O)nc(-c3cc(S(=O)(=O)N4CCN(CC)CC4)ccc3OCC)[nH]n12` [Vardenafil HCl Trihydrate], the “miR-132-3p level in NGN2-iNs” value was -0.731.
Next, `O=C(O)/C=C/c1ccc(Cn2ccnc2)cc1` [Ozagrel]: 0.172.
Consider `O=C(O)/C=C/c1ccc(Cn2ccnc2)cc1` [Ozagrel HCl], for which the “miR-132-3p level in NGN2-iNs” value was 0.202.
The value for `COc1cc2nccc(Oc3ccc(NC(=O)C4(C(=O)Nc5ccc(F)cc5)CC4)cc3)c2cc1OC` was -0.533; that for `COc1cc2nccc(Oc3ccc(NC(=O)C4(C(=O)Nc5ccc(F)cc5)CC4)cc3)c2cc1OC` [Cabozantinib malate (XL184)] was -1.49; that for `Cc1c(-c2ccnn2C)cc(C(=O)NCc2ccc(S(C)(=O)=O)cn2)c(=O)n1-c1cccc(C(F)(F)F)c1` [Alvelestat (AZD9668)] was -1.18.
The value for `Nc1ncn([C@@H]2O[C@H](CO)[C@@H](O)[C@H]2O)c(=O)n1` [Azacitidine] was 0.764; that for `CCCNC(C)C(=O)Nc1ccccc1C` (centres undefined) [Prilocaine] was -0.951; that for `O=C(Nc1ccc(OC(F)(F)F)cc1)c1sccc1NCc1ccnc2ccccc12` was -0.203.
The value for `COc1cc(/C=C/C(=O)N2CCN(CC(=O)N3CCCC3)CC2)cc(OC)c1OC` [Cinepazide maleate] was 1.74.
As for `Cn1c(=O)cc(N2CCC[C@@H](N)C2)n(Cc2cc(F)ccc2C#N)c1=O` [Trelagliptin], the “miR-132-3p level in NGN2-iNs” value was found to be 0.241.
The value for `O=C(c1cccc(Cl)c1F)N1CCN(Cc2cccc(Nc3nccs3)n2)CC1` was -1.05; that for `CC(C)[C@H]1C(=O)N[C@@H](CCCNC(=N)N)C(=O)NCC(=O)N[C@@H](CC(=O)O)C(=O)N[C@H](Cc2ccccc2)C(=O)N1C` [Cilengitide trifluoroacetate] was -0.0437.
Next, `COc1cc(OC)c2c(=O)[nH]c(-c3cc(C)c(OCCO)c(C)c3)nc2c1` [Apabetalone (RVX-208)]: -0.383; `CC(C)(C)NC[C@H](O)COc1nsnc1N1CCOCC1` [Timolol Maleate]: -0.422; `COC1=C(OC)C(=O)C(CCCCCCCCCCO)=C(C)C1=O` [Idebenone]: -0.717.
Consider `Cc1nc(NC(=O)N2CCC[C@H]2C(N)=O)sc1-c1csc(C(C)(C)C)n1`, for which the “miR-132-3p level in NGN2-iNs” value is -0.906.
The value for `CCOC(=O)[C@H](CCc1ccccc1)N[C@H]1CCc2ccccc2N(CC(=O)O)C1=O` [Benazepril HCl] was -0.0835; that for `CC[C@H]1OC(=O)[C@H](C)[C@@H](O[C@H]2C[C@@](C)(OC)[C@@H](O)[C@H](C)O2)[C@H](C)[C@@H](O[C@@H]2O[C@H](C)C[C@H](N(C)C)[C@H]2O)[C@](C)(O)C[C@@H](C)/C(=N\OCOCCOC)[C@H](C)[C@@H](O)[C@]1(C)O` [Roxithromycin] was 0.391.
The value for `O=C(NCCS(=O)(=O)c1ccc(C(F)(F)F)cn1)c1ccc(Cl)cc1` was 0.124; that for `C=C1CC[C@H](O)C/C1=C/C=C1\CCC[C@]2(C)[C@@H]([C@H](C)CCCC(C)(C)O)CC[C@@H]12` [Calcifediol] was -0.193.
Next, `CC(C)CC(=O)Nc1n[nH]c2c1CN(C(=O)C1CCN(C)CC1)C2(C)C`: 0.785; `Nc1nc(Cl)nc2c1ncn2[C@@H]1O[C@H](CO)[C@@H](O)[C@@H]1F` [Clofarabine]: 0.898; `CN1CC[C@H](c2c(O)cc(O)c3c(=O)cc(-c4ccccc4Cl)oc23)[C@H](O)C1` [Flavopiridol HCl]: 0.765.
With `CC(C)NCC(O)COc1ccc(COCCOC(C)C)cc1` (centres undefined) [Bisoprolol fumarate], the “miR-132-3p level in NGN2-iNs” value is -0.268.
The value for `O=c1cc(-c2ccc(O)cc2)oc2cc(O)cc(O)c12` [Apigenin] was -0.0356; that for `C[C@@H](N)[C@H]1CC[C@H](C(=O)Nc2ccncc2)CC1` was 0.714.
Next, `NC(CO)(CO)CO` [Trometamol]: 1.33.
The value for `O=c1ncccn1[C@@H]1O[C@H](CO)[C@@H](O)[C@H]1O` was -1.21; that for `O=C(CCCCCCNC(=O)c1cnc(N(c2ccccc2)c2ccccc2)nc1)NO` [Ricolinostat (ACY-1215)] was 2.43; that for `CC(C)n1nc(-c2cc3cc(O)ccc3[nH]2)c2c(N)ncnc21` [Torkinib (PP242)] was -1.32.
As to `COc1nc(C)nc(Cl)c1NC1=NCCN1` [Moxonidine], the “miR-132-3p level in NGN2-iNs” value is 0.587.
For `O=C(Nc1cc(C(F)(F)F)ccc1N1CCCCC1)c1ccncc1`, the “miR-132-3p level in NGN2-iNs” value came to 0.22.
Regarding `Cc1cc(Cn2cnc3c2CC(C(=O)O)N(C(=O)C(c2ccccc2)c2ccccc2)C3)ccc1N(C)C` (centres undefined), the “miR-132-3p level in NGN2-iNs” value came out at 1.07.
The value for `Cc1ccc(S(=O)(=O)NC(=O)NN2CC3CCCC3C2)cc1` (centres undefined) [Gliclazide] was -0.607; that for `COc1ccc2cc(CCC(C)=O)ccc2c1` [Nabumetone] was -0.678; that for `C[C@H]1[C@@H](O)O[C@@H]2O[C@@]3(C)CC[C@H]4[C@H](C)CC[C@@H]1[C@@]24OO3` [Dihydroartemisinin (DHA)] was -0.336.
Next, `COc1ccc(-c2oc3c(CC=C(C)C)c(O[C@@H]4O[C@H](CO)[C@@H](O)[C@H](O)[C@H]4O)cc(O)c3c(=O)c2O[C@@H]2O[C@@H](C)[C@H](O)[C@@H](O)[C@H]2O)cc1` [Icariin]: -0.527.
With `CCn1cc(C(=O)O)c(=O)c2ccc(C)nc21` [Nalidixic acid], the “miR-132-3p level in NGN2-iNs” value was -0.537.
On to `CN(C)c1ccc(C(=O)NCCCCCCC(=O)NO)cc1`, for which the “miR-132-3p level in NGN2-iNs” value worked out at 0.368.
Next, `CCO[C@@H]1OC(=O)C[C@@H]1NC(=O)[C@@H]1CCCN1C(=O)[C@@H](NC(=O)c1ccc(N)c(Cl)c1)C(C)(C)C` [Belnacasan (VX-765)]: 0.356; `O=C(CCCN1CC=C(n2c(=O)[nH]c3ccccc32)CC1)c1ccc(F)cc1` [Droperidol]: 0.509; `Cc1ncc([N+](=O)[O-])n1CCO` [Metronidazole]: -0.047.
Next, `OC(CCN1CCCCC1)(c1ccccc1)C1CC2C=CC1C2` (centres undefined) [Biperiden HCl]: 0.277.
Next, `CC(=O)O/N=C1\C(=O)N(Cc2cc(Cl)ccc2Cl)c2ccc(Cl)cc21`: 0.343; `CCN(Cc1ccncc1)C(=O)C(CO)c1ccccc1` (centres undefined) [Tropicamide]: -0.928.
Regarding `Cc1ccc(C(=O)c2cc(O)c(O)c([N+](=O)[O-])c2)cc1` [Tolcapone], the “miR-132-3p level in NGN2-iNs” value is -1.33.
Next, `O=C([O-])c1ccccc1O.[Na+]` [Sodium salicylate]: -0.512; `C=CC[C@@H]1/C=C(\C)C[C@H](C)C[C@H](OC)[C@H]2O[C@@](O)(C(=O)C(=O)N3CCCC[C@H]3C(=O)O[C@H](/C(C)=C/[C@@H]3CC[C@@H](O)[C@H](OC)C3)[C@H](C)[C@@H](O)CC1=O)[C@H](C)C[C@@H]2OC` [Tacrolimus (FK506)]: 0.0574; `CN(C)Cc1cccc(N=C(c2ccccc2)c2c(O)[nH]c3cc(C(N)=O)ccc23)c1`: 1.97.
The value for `O=C(N/N=C/c1ccc(O)c(O)c1)c1cc2ccccc2cc1O` [Dynasore] was -0.233; that for `CC(C)C[C@H](NC(=O)[C@H](CCc1ccccc1)NC(=O)CN1CCOCC1)C(=O)N[C@@H](Cc1ccccc1)C(=O)N[C@@H](CC(C)C)C(=O)[C@@]1(C)CO1` [Carfilzomib (PR-171)] was -0.658.
Turning to `O=S(=O)(c1ccccc1)c1cnc2c(N3CCNCC3)cccc2c1`, the “miR-132-3p level in NGN2-iNs” value is -0.154.
As to `NC(=O)N/N=C/c1ccc([N+](=O)[O-])o1` [Nitrofural], the “miR-132-3p level in NGN2-iNs” value came out at 2.65.
The value for `O=C(O[C@H]1CN2CCC1CC2)N1CCc2ccccc2[C@@H]1c1ccccc1` [Solifenacin succinate] was -0.141.
